Assay results as given in US9089521B2, “Method for regulating production of hemoglobin beta chains” (priority 2001, dated 2015).
At least one structure is not confirmed: it was looked up by name or label, or the drawing left a doubt.

Test system: NT-2 cells
Assay: Neuronal differentiation of NT-2 cell culture
Assay type: cell-based, human
Conditions: cultured with retinoic acid for 8 weeks (10 μM RTA, FIG. 21a)

With `CC1=C(/C=C/C(C)=C/C=C/C(C)=C/C(=O)O)C(C)(C)CCC1` [retinoic acid] the neuronal differentiation was “induced neuronal differentiation”.
